Experimental findings from PMC11736057 are described below.

The target of the assay is T1, E. coli aminomethyltransferase (T-protein) (E. coli) (UniProt P27248).
T1 sequence: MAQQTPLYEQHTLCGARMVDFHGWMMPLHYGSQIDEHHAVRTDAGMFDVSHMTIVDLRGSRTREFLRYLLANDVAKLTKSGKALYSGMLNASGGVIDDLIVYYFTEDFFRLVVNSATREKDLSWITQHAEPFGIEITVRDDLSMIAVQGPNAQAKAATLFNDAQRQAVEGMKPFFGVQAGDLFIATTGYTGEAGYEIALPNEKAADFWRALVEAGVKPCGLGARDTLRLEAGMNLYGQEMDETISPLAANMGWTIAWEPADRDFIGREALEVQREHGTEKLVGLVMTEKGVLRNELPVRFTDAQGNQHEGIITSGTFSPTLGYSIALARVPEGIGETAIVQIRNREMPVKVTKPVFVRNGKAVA
Briefly: co-purification on Ni-NTA; His-tagged T-protein captured from clarified E. coli lysate on Ni-NTA; 50 mM HEPES pH 7.5, 250 mM KCl; imidazole step gradient, 50 mM and 100 mM imidazole fractions combined; desalted.

These are yes or no findings as the source states them, for the method shown. Some entries that bind do so weakly or less than the wild type.

B1: H-protein of the glycine cleavage system (protein, UniProt P0A6T9 1-129)
chain: MSNVPAELKYSKEHEWLRKEADGTYTVGITEHAQELLGDMVFVDLPEVGATVSAGDDCAVAESVKAASDIYAPVSGEIVAVNDALSDSPELVNSEPYAGGWIFKIKASDESELESLLDATAYEALLEDE
On to B1, for which the binding entry is recorded as “binds”.
